From article PMC10765725 come the findings set out here.

Protein sequences, listed by entry. Tags and fused reporters are not part of them.
UniProt P51150: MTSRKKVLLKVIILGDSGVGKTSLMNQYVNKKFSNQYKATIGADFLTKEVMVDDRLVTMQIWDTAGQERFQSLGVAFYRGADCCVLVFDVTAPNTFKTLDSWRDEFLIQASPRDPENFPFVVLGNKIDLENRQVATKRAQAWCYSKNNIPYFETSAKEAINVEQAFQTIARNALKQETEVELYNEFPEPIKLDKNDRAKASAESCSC
UniProt P56962: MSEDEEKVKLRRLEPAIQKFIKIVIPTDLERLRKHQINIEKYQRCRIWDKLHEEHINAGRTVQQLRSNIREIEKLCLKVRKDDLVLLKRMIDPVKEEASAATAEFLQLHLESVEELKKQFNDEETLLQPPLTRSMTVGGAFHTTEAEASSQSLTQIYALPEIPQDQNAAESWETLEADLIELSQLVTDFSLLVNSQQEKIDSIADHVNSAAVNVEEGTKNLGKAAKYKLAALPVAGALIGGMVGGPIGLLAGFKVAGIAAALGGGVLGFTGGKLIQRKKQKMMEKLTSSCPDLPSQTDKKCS

Assay [1] addresses Rab7 (mouse hippocampus) (mouse (endogenous in hippocampus)) (UniProt P51150). Put plainly: co-IP; anti-Rab7 antibody on magnetic beads, incubated 4 h at 4 °C with mouse hippocampus lysate (Nonidet P-40 lysis buffer), called immunoisolation of late endosomes; blots for CCZ1 and Stx17; mice of the control, Meth and Meth + AAV-Stx17 groups.
For assay [2], the target named is Flag-tagged Stx17 (UniProt P56962). The assay can be described thus: co-IP; immunoprecipitation of Flag-Stx17 from HEK293T cell lysate (Nonidet P-40 lysis buffer, magnetic beads), blots for endogenous LC3-II/I and CCZ1; cells under Meth treatment or starvation.

Results are given in words; binding and its absence hold for the method and conditions named. In cells and extracts the contact can be indirect. Some binding calls cover weakened binding; strength is not graded here.

B1: CCZ1 (mouse hippocampus) (protein, UniProt Q8C1Y8 1-480)
chain: MAAAAAGPGAWAAQEKQFPPALLSFFIYNPRFGPREGEEENKILFYHPNEVEKNEKIRNVGLCEAIVQFTRTFSPSKPAKSLHTQKNRQFFNEPEENFWMVMVVRNPIIEKQSKDGKAVVEYQEEELLDKVYSSVLQQCYSMYKLFNGTFLKAMEDGGVKLLKERLEKFFHRYLQTLHLQSCDLLDIFGGISFFPLDKMTYLKIQSFINRMEESLSVVKYTAFLYNDQLIWSGLEQDDMRILYKYLTTSLFPRHIEPELAGRDSPVRAEMPGNLQHYGRFLTGPLNLNDPEAKCRFPKIFVNTDDTYEELHLIVYKAMSAAVCFMIDASTPLTLDFCRRLDSIVGPQLTVLASDICEQFNINKRISGSEKEPQFKFIYFNHMNLAEKSTIHMRKTPSVSLTSVHPDLMKILGDINSDFTRADEDEEIIVKAMSDYWVVGKKSDQRELYVILSQKNANLIEVNEEVKKLCATQFNNIFFLD
Take B1: in assay [1], the binding entry is recorded as “binds”.

B2: Stx17 (mouse hippocampus) (protein, UniProt Q9D0I4 1-301)
chain: MSEDEEKVKLRRLEPAIQKFTKIVIPTDLERLRKHQINIEKYQRCRIWDKLHEEHINAGRTVQQLRSNIREMEKLCLKVHKDDLVLLKRMIDPVKEAAATATAEFLQLHLESVEELKKQVNDEELLQPSLTRSTTVDGVLHTGEAEAASQSLTQIYALPEIPQDQNAAESWETLEADLIELSHLVTDMSLLVSSQQEKIDSIADHVNSAAVNVEEGTKNLQKAAKYKLAALPVAGALIGGVVGGPIGLLAGFKVAGIAAALGGGVLGFTGGKLIQRRKQKMMEKLTSSCPDLPSQSDKKRS
Take B2: the binding result in assay [1] was “binds”.

B3: endogenous CCZ1 (HEK293T) (protein, UniProt P86791 1-482)
chain: MAAAAAGAGSGPWAAQEKQFPPALLSFFIYNPRFGPREGQEENKILFYHPNEVEKNEKIRNVGLCEAIVQFTRTFSPSKPAKSLHTQKNRQFFNEPEENFWMVMVVRNPIIEKQSKDGKPVIEYQEEELLDKVYSSVLRQCYSMYKLFNGTFLKAMEDGGVKLLKERLEKFFHRYLQTLHLQSCDLLDIFGGISFFPLDKMTYLKIQSFINRMEESLNIVKYTAFLYNDQLIWSGLEQDDMRILYKYLTTSLFPRHIEPELAGRDSPIRAEMPGNLQHYGRFLTGPLNLNDPDAKCRFPKIFVNTDDTYEELHLIVYKAMSAAVCFMIDASVHPTLDFCRRLDSIVGPQLTVLASDICEQFNINKRMSGSEKEPQFKFIYFNHMNLAEKSTVHMRKTPSVSLTSVHPDLMKILGDINSDFTRVDEDEEIIVKAMSDYWVVGKKSDRRELYVILNQKNANLIEVNEEVKKLCATQFNNIFFLD
Turning to B3, in assay [2], the binding entry is “binds”.
